According to patent US10577394 (dated 2020):
[ ]: non-standard residue; d: D form. dPhe(4-Cl) = N[C@H](Cc1ccc(Cl)cc1)C(=O)O; d2Nal = N[C@H](Cc1ccc2ccccc2c1)C(=O)O; d3Pal = N[C@H](Cc1cccnc1)C(=O)O

Key:
[1] = general procedure: Fmoc solid-phase peptide synthesis; Rink Amide resin; DIC/HOBt; conditions: whole synthesis, scale of the general procedure 10 g or 100 g of Rink Amide resin, 0.5 mmol/g, acetate, run 1
[2] = general procedure: Fmoc solid-phase peptide synthesis; Rink Amide resin, Rink Amide AM resin or Rink Amide MBHA resin; DIC/HOBt; conditions: whole synthesis, scale of the general procedure 10 g or 100 g of Rink Amide resin, 0.5 mmol/g, acetate

## Ac-[d2Nal][dPhe(4-Cl)][d3Pal]SY[dK]LKP[dA]-NH2
[1]; HPLC
  crude purity (method not given): 90%
[1]
  crude yield: 98%
[2]; HPLC
  crude HPLC purity: 90.67%
[2]; HPLC, run 2
  crude purity (method not given): 91%
[2]; run 2
  crude yield: 99.8%
